Experimental data published in patent US8053435B2, “Naphthalenyloxypropenyl derivatives having inhibitory activity against histone deacetylase and pharmaceutical composition comprising the same” (Korea Research Institute of Chemical Technology, priority 2006, dated 2011).

System: colon cancer cells HCT116
Assay: Inhibitory activity against proliferation of cancer cells, SRB (Sulforhodamine B) analysis
Format: cell-based
Conditions: Homo sapiens, HCT-116, Table 2, 48 hrs incubation with compound, read-out: Inhibitory conc. against cancer cell growth (EC50 μM) HCT116
Excerpt: Inhibitory activities of naphthalenyloxypropenyl derivatives synthesized in Examples 1-1 to 1-23 against proliferation of cancer cells were examined by SRB (Sulforhodamine B) analysis using cervix adenocarcinoma Hela (Korean Cell Line Bank, KCLB 10002) and colon cancer cells HCT116 (Korean Cell Line Bank, KCLB 10247) as follows: […]
Inhibitory activities of naphthalenyloxypropenyl derivatives synthesized in Examples 2-1 to 2-30 against proliferation of cancer cells were examined by SRB (Sulforhodamine B) analysis using cervix adenocarcinoma Hela (Korean Cell. Line Bank, KCLB 10002) and colon cancer cells HCT116 (Korean Cell Line Bank, KCLB 10247) as follows:
Cancer cells were inoculated into a 96-well microplate at a concentration of 1×10^3˜3×10^3 cells/well and incubated under the condition of 37° C., 5% CO2 for 24 hrs. After the incubation was completed, 0.2, 1, 5, 25, or 100 μM of each of the compounds of Examples was added to the plate, and then the reactant was incubated for 48 hrs. After the substrate was stained with SRB, the anti-cancer activity was determined by comparing the amount of protein in the cells treated with the compound of Examples with that of protein in untreated cells.
Specifically, after the incubation was completed, the culture medium was removed from each well, and the cells were washed 3 times with PBS (pH 7.4). […]

O=C(CCCCCCC(=O)Nc1ccccc1)NO [SAHA, suberoylanilide hydroxamic acid, reference compound]
EC50: 1.6 µM
